Measurements reported in PubChem BioAssay AID504774 (Drosophila RNAi Screening Center, 2011).

- Screen: 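Knock-downs that shift viability of MMS-exposed cells relative to untreated ones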 (primary screen)
- Cell system: Drosophila Kc167 cells
- Reagents: long dsRNA against Drosophila genes, about 0.25 µg dsRNA per well
- Timing: about 6 days: 3 days knock-down, then 3 days with or without MMS
- Challenge: methyl methanesulphonate 0.004% (w/v) for 3 days after knock-down
- Detection: 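Viability in wells given MMS, read as ATP luminescence, normalised by quantiles plate by plate and averaged across replicates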
- Reading the numbers: mean viability with MMS and viability with MMS: higher = more surviving cells after MMS
The screen tested about 23,000 reagents; below is a random part of those with a known target gene and a result. 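Values are quantile-normalised luminescence on an arbitrary scale; higher means more cells surviving MMS.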 A plus sign joins genes that one reagent is predicted to hit.

| Target gene | amplicon | mean viability with MMS | viability with MMS, replicate 1 | viability with MMS, replicate 2 |
| --- | --- | --- | --- | --- |
| Ilp7 | DRSC17895 | 3.59e6 | 3.89e6 | 4.25e6 |
| CG9717 | DRSC16543 | 3.44e6 | 3.82e6 | 3.92e6 |
| UQCR-6.4 | DRSC06454 | 3.66e6 | 4.15e6 | 4.11e6 |
| CG16852 | DRSC01876 | 3.64e6 | 4.11e6 | 4.11e6 |
| Gr47a | DRSC06221 | 3.53e6 | 4.01e6 | 4.00e6 |
| Art1 | DRSC16063 | 3.48e6 | 3.92e6 | 3.95e6 |
| RpS19b | DRSC15773 | 3.36e6 | 3.72e6 | 3.81e6 |
| CR33328 (retired record) | DRSC22954 | 3.57e6 | 4.05e6 | 4.00e6 |
| Alp13 | DRSC15781 | 3.72e6 | 4.15e6 | 4.14e6 |
| CG14220 | DRSC19577 | 3.45e6 | 3.94e6 | 3.89e6 |
| ETHR | DRSC15915 | 3.61e6 | 4.15e6 | 4.04e6 |
| Cyp4e1 | DRSC07370 | 3.53e6 | 3.99e6 | 4.02e6 |
| CG4716 | DRSC06884 | 3.65e6 | 4.17e6 | 4.13e6 |
| CG11672 | DRSC14344 | 3.48e6 | 4.01e6 | 3.91e6 |
| Ctr1B + Poxm | DRSC16245 | 3.45e6 | 3.88e6 | 3.96e6 |
| CG14298 | DRSC14777 | 3.55e6 | 3.94e6 | 4.11e6 |
| glob3 | DRSC12261 | 3.55e6 | 3.94e6 | 4.11e6 |
| Ge-1 | DRSC02938 | 3.17e6 | 3.71e6 | 3.40e6 |
| Cyp6w1 | DRSC04909 | 3.55e6 | 4.14e6 | 3.85e6 |
| CG7139 | DRSC11611 | 3.64e6 | 4.14e6 | 4.09e6 |
| CG13247 | DRSC11695 | 3.70e6 | 4.18e6 | 4.13e6 |
| Bx | DRSC19350 | 3.19e6 | 3.55e6 | 3.56e6 |
| Bx | DRSC23048 | 3.10e6 | 3.51e6 | 3.37e6 |
| CG8834 | DRSC07283 | 3.55e6 | 3.94e6 | 4.06e6 |
| Mur11Da | DRSC18960 | 3.40e6 | 3.85e6 | 3.88e6 |
| CG8229 + CG33199 | DRSC05134 | 3.90e6 | 4.11e6 | 4.78e6 |
| mAChR-C | DRSC17890 | 3.55e6 | 4.12e6 | 3.97e6 |
| CkIIalpha-i1 | DRSC11115 | 3.86e6 | 4.27e6 | 4.32e6 |
| vers | DRSC10715 | 3.43e6 | 3.87e6 | 3.92e6 |
| vers | DRSC23232 | 3.25e6 | 3.62e6 | 3.72e6 |
| Hsdl2 | DRSC15839 | 3.57e6 | 4.08e6 | 4.03e6 |
| CG7653 | DRSC01886 | 3.51e6 | 3.99e6 | 3.98e6 |
| CG9643 | DRSC00722 | 3.48e6 | 4.13e6 | 3.77e6 |
| par-1 | DRSC05792 | 3.07e6 | 3.60e6 | 3.64e6 |
| par-1 | DRSC06098 | 3.53e6 | 3.98e6 | 4.02e6 |
| par-1 | DRSC06616 | 3.64e6 | 4.09e6 | 4.18e6 |
| par-1 | DRSC07660 | 3.66e6 | 4.15e6 | 4.12e6 |
| par-1 | DRSC07661 | 3.55e6 | 4.02e6 | 4.03e6 |
| BigH1 | DRSC15491 | 3.49e6 | 4.05e6 | 3.86e6 |
| CG10948 | DRSC09806 | 3.63e6 | 4.21e6 | 3.96e6 |
| CG42729 | DRSC10236 | 3.47e6 | 3.92e6 | 3.92e6 |
| wap | DRSC20626 | 3.50e6 | 4.00e6 | 3.94e6 |
| PIG-O | DRSC06123 | 3.50e6 | 3.93e6 | 4.00e6 |
| CG4069 | DRSC10396 | 3.48e6 | 3.92e6 | 3.96e6 |
| CG5068 | DRSC10476 | 3.67e6 | 4.34e6 | 3.99e6 |
| CG6094 | DRSC02927 | 3.53e6 | 3.85e6 | 4.16e6 |
| CG6094 | DRSC22705 | 3.57e6 | 4.07e6 | 4.00e6 |
| ctrip | DRSC12242 | 3.19e6 | 3.61e6 | 3.64e6 |
| ctrip | DRSC12287 | 3.07e6 | 3.60e6 | 3.65e6 |
| ctrip | DRSC22449 | 2.86e6 | 3.68e6 | 3.68e6 |
| slx1 | DRSC12290 | 3.48e6 | 3.95e6 | 3.91e6 |
| soti | DRSC16432 | 3.46e6 | 3.89e6 | 3.92e6 |
| Lgr4 | DRSC18969 | 3.33e6 | 3.76e6 | 3.77e6 |
| Lgr4 | DRSC18970 | 3.33e6 | 3.79e6 | 3.76e6 |
| Lgr4 | DRSC19884 | 3.58e6 | 4.03e6 | 4.07e6 |
| CG3907 | DRSC04432 | 3.42e6 | 3.87e6 | 3.87e6 |
| CR46300 | DRSC12467 | 3.59e6 | 4.15e6 | 3.97e6 |
| CG32170 | DRSC09452 | 3.50e6 | 4.04e6 | 3.91e6 |
| elgi | DRSC10242 | 3.65e6 | 4.15e6 | 4.10e6 |
| Sgsh | DRSC14771 | 3.54e6 | 4.19e6 | 3.85e6 |
| wdp | DRSC04367 | 3.58e6 | 4.07e6 | 4.06e6 |
| Lcp65Ag3 | DRSC10345 | 3.84e6 | 4.05e6 | 4.13e6 |
| ttm3 | DRSC03736 | 3.55e6 | 3.98e6 | 4.07e6 |
| IP3K1 + hpRNA:CR18854 | DRSC23313 | 3.38e6 | 3.87e6 | 3.83e6 |
| Hsp26 | DRSC11189 | 3.61e6 | 4.21e6 | 3.99e6 |
| CG30394 | DRSC04074 | 3.56e6 | 4.03e6 | 4.04e6 |
| CG30394 | DRSC04260 | 3.58e6 | 4.04e6 | 4.08e6 |
| CG5180 | DRSC15731 | 3.60e6 | 4.07e6 | 4.09e6 |

Already shown: an excerpt of the list.
| Target gene | amplicon | mean viability with MMS | viability with MMS, replicate 1 | viability with MMS, replicate 2 |
| --- | --- | --- | --- | --- |
| wap | DRSC20626 | 3.50e6 | 4.00e6 | 3.94e6 |
| PIG-O | DRSC06123 | 3.50e6 | 3.93e6 | 4.00e6 |
| CG4069 | DRSC10396 | 3.48e6 | 3.92e6 | 3.96e6 |
| CG5068 | DRSC10476 | 3.67e6 | 4.34e6 | 3.99e6 |
| CG6094 | DRSC02927 | 3.53e6 | 3.85e6 | 4.16e6 |
| CG6094 | DRSC22705 | 3.57e6 | 4.07e6 | 4.00e6 |
| ctrip | DRSC12242 | 3.19e6 | 3.61e6 | 3.64e6 |
| ctrip | DRSC12287 | 3.07e6 | 3.60e6 | 3.65e6 |
